# From the supplement of paper PMC8498969
# What was measured:
# HEK293 [1] = experiment: cytotoxicity IC50 (ATP content, uninfected cells); higher = less cytotoxic; details: infection: none
# HEK293 [2] = experiment: maximal inhibition of ZIKV NS1 production (% inhibition); higher = stronger antiviral effect
# Procedure: (§1)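 HEK293 cells in 1536-well plates were pre-treated with compound for 1 h, infected with ZIKV (MOI 1) for 24 h, and NS1 antigen (intra- plus extracellular) was measured by TR-FRET. Confirmation used 11-point 1:3 dilutions, and IC50 and maximal inhibition were fitted in GraphPad Prism.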
# HEK293 [3] = experiment: IC50 for inhibition of ZIKV NS1 production
# Procedure: as §1
smiles,measurement,setting,value
O=C1NC(=O)c2c1c(-c1ccccc1)cc1[nH]c3ccc(O)cc3c21,cytotoxicity IC50,HEK293 [1],3.6 µM
same,maximal inhibition,HEK293 [2],97
same,IC50,HEK293 [3],4.7 µM
